Screening data

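Luminescence from an EWS-FLI1 target-promoter (NR0B1) reporter, set against a CMV-promoter reporter, two days after silencing single genes in TC32 Ewing sarcoma cells. Each siRNA was applied at 20 nM. A z-score of the log NR0B1-over-CMV signal, less the median of siRNAs with the same seed; more negative means a stronger specific loss of the NR0B1 reporter.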

This is part of the screen; most of the strongest results are not listed here. Sequences are the guide (antisense) strand, without overhang.

| # | Sequence | gene | seed-corrected z-score |
|---|---|---|---|
| 1 | `UCAUUUAGCAACAAAUCCG` | PCDHB8 | 0.1549 |
| 2 | `UCUGUUAGCCUUCUCCACC` | RITA1 | 0.05982 |
| 3 | `AUACUUCAGAACACGCUGC` | WFDC13 | 1.338 |
| 4 | `AAUGGUGUCAGUAGAAAAG` | CLEC4E | 0.9224 |
| 5 | `UACGUUUAAGCCCUGAAUC` | PEG3 | -0.2053 |
| 6 | `UUCUGAACAAGGCCUUCAG` | TMEM176A | -0.7402 |
| 7 | `AUGGGAUAAGGAAUGGUUC` | SLC19A3 | 0.684 |
| 8 | `AAUGAAGUAACUAGGAGUC` | WSCD2 | 2.114 |
| 9 | `AAAGUAUAAGUCUCUCCCU` | C11orf96 | -0.2016 |
| 10 | `UAAUAGGAACGGAACAGGG` | PCYOX1L | -1.204 |
| 11 | `UAAAGGGUGCUUGUGGUCU` | TMEM214 | -1.457 |
| 12 | `UAAUGGUAGACUUGGUACC` | PAN2 | 0.03221 |
| 13 | `UAAGGAAACCGACGUGCUC` | EMC7 | 0.5212 |
| 14 | `AGUCGAUUUUGAUCAGCGC` | TTC34 | 0.4847 |
| 15 | `UUCACUAACAGCCUCCUCC` | SPATA31C1 | -0.4251 |
| 16 | `UUCCGAACAAGGGCAACUG` | TSSK6 | -0.05432 |
| 17 | `AGACUUACAGGGCUUGAUG` | FRZB | 0.2463 |
| 18 | `UCUCGUCAUAUUCUUCAGC` | DPCD | 0.8397 |
| 19 | `UUGCAUUUAACGCGGACCU` | UBL5 | -1.066 |
| 20 | `AAACUAUUCUCUUUCAUAG` | SNRPC | 1.875 |
| 21 | `UCUUCAUUCACCAUGAGUU` | C10orf53 | 0.04773 |
| 22 | `UCAGGACCAAGUCCCUUUC` | ELMOD3 | -0.2955 |
| 23 | `UGAGGCUUAAGGCUGCAUG` | ILKAP | -0.7056 |
| 24 | `UUAGCCUUCAUGUGCAGGC` | UNC93B2 | 0.01927 |
| 25 | `AACAAGACAUGUGAUAGGC` | LINC00705 | 0.09196 |
| 26 | `ACAGUGAUAAGUGUAGCAC` | TMEM130 | 0.7096 |
| 27 | `UGCUAUUUCAUCCAUCUAC` | SPATA25 | -0.871 |
| 28 | `UCAAGGUUUAUGUUGCUCC` | PFDN4 | 1.648 |
| 29 | `UAAUUUCCCAGGAUAAGAG` | ASCL3 | 1.011 |
| 30 | `UGAAGUAUAGGAUAAGCAC` | ODF4 | 0.01999 |
| 31 | `UCUGACGUAGCAUCUGUGG` | LOC393078 | -0.3831 |
| 32 | `UUGUAUUCUGGAGGUGUUG` | CDR2 | -1.656 |
| 33 | `UUGGUCUUGACACUAUAUG` | OR51B5 | -0.4052 |
| 34 | `UAAGCUGUUCUGCUAUUUC` | C3orf58 | 1.71 |
| 35 | `UUCAUCGUGAACUAGGUCG` | TEKT3 | -0.392 |
| 36 | `UUCUUUGCAGAAAAAUCCC` | ATG4A | -0.217 |
| 37 | `UCAGGUUCCAGGUCUCCCU` | AIPL1 | -0.04094 |
| 38 | `UUUGUUGUAUGGGACUUGG` | C1S | -0.5674 |
| 39 | `UUUGCAGACACGUGGGUCC` | SLC7A14 | 0.4977 |

Repeated from the top, 4 entries:

Sequence,gene,seed-corrected z-score
UCAUUUAGCAACAAAUCCG,PCDHB8,0.1549
UCUGUUAGCCUUCUCCACC,RITA1,0.05982
AUACUUCAGAACACGCUGC,WFDC13,1.338
AAUGGUGUCAGUAGAAAAG,CLEC4E,0.9224

Data taken from PubChem BioAssay AID1159506, deposited by NCATS (2015).